Binding data for one molecule are collected here from article PMC7949146.

By UniProt entry, the sequences of proteins in these tests, tags left out.
UniProt Q92547: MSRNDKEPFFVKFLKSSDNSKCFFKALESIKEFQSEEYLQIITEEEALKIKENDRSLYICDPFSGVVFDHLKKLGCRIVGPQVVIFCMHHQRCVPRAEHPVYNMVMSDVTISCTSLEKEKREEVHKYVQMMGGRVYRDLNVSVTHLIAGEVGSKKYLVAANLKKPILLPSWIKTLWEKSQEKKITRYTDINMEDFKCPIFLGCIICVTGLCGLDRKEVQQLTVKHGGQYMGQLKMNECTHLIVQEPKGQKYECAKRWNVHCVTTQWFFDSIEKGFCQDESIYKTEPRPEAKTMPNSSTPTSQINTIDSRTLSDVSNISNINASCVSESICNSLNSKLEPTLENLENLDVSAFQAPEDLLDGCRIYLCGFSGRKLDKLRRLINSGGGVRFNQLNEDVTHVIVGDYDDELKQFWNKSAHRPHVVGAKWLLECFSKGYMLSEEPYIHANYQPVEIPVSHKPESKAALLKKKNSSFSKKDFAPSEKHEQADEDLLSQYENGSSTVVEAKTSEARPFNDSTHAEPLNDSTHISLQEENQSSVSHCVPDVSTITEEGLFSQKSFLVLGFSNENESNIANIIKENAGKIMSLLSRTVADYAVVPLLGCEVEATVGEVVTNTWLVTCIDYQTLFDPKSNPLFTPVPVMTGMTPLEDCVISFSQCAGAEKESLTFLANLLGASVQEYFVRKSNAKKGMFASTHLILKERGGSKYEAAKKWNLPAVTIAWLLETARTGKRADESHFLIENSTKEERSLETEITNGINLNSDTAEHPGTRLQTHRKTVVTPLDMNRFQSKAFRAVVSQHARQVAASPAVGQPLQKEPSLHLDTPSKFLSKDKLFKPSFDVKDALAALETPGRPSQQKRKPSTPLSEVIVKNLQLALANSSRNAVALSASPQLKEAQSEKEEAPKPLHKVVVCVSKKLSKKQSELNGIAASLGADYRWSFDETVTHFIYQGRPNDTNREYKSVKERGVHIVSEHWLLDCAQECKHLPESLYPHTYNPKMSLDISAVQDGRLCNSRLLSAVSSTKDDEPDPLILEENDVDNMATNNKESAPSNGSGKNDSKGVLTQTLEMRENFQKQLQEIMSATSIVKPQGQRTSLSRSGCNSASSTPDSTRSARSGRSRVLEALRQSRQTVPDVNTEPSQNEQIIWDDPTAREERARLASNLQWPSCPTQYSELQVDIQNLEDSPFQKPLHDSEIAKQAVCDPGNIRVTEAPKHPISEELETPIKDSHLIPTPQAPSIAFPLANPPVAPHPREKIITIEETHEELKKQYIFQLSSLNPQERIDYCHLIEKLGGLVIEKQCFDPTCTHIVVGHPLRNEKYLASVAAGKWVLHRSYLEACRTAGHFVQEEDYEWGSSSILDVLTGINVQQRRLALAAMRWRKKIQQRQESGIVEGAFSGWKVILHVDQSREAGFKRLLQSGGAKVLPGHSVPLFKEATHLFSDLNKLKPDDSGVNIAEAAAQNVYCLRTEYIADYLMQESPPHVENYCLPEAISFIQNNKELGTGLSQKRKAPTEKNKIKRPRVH

The experiment deals with Topoisomerase IIβ-binding protein 1 (TopBP1) (UniProt Q92547). Description: co-IP; U2OS or MCF10A cells infected with Ad-CMV or Ad-TopBP1 at the indicated MOI, HU 2 mM; coimmunoprecipitation with anti-TopBP1 antibody as in Figure 3C; immunoblot. (In general: Immunoblotting shows a protein as a band on a membrane.)

Results are given in words; binding and its absence hold for the method and conditions named. Binding seen in cells or lysates may run through a third protein. Some results given as binding are weak or reduced against the parent protein; the word gives no strength.

B1: Rad9 (protein, UniProt Q99638 1-391)
chain: MKCLVTGGNVKVLGKAVHSLSRIGDELYLEPLEDGLSLRTVNSSRSAYACFLFAPLFFQQYQAATPGQDLLRCKILMKSFLSVFRSLAMLEKTVEKCCISLNGRSSRLVVQLHCKFGVRKTHNLSFQDCESLQAVFDPASCPHMLRAPARVLGEAVLPFSPALAEVTLGIGRGRRVILRSYHEEEADSTAKAMVTEMCLGEEDFQQLQAQEGVAITFCLKEFRGLLSFAESANLNLSIHFDAPGRPAIFTIKDSLLDGHFVLATLSDTDSHSQDLGSPERHQPVPQLQAHSTPHPDDFANDDIDSYMIAMETTIGNEGSRVLPSISLSPGPQPPKSPGPHSEEEDEAEPSTVPGTPPPKKFRSLFFGSILAPVRSPQGPSPVLAEDSEGEG
On to B1, for which the binding entry is “binds”.
